# Data: the supplement of paper PMC8728848
# The other results are listed elsewhere or left out.
# What was measured:
# Test in all cases: glycan array binding signal (z-score within array); higher = stronger binding
# Conditions in all cases: glycan notation: IUPAC condensed, linker removed
# [1] = target: GlcNAc(b1-3)Gal(b1-4)GlcNAc(b1-3)Gal(b1-4)GlcNAc(b1-2)Man(a1-3)[GlcNAc(b1-3)Gal(b1-4)GlcNAc(b1-3)Gal(b1-4)GlcNAc(b1-2)Man(a1-6)]Man(b1-4)GlcNAc(b1-4)[Fuc(a1-6)]GlcNAc
# Procedure, shortened: (§1)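 The Consortium for Functional Glycomics database supplied 3228 glycan arrays, of which those lacking an available protein sequence were dropped. The binding signal, a within-array Z-score, was averaged across arrays of the same protein sequence and across linkers. Negative scores can be read as non-binding.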
# [2] = target: GlcNAc(b1-3)Gal(b1-4)GlcNAc(b1-3)Gal(b1-4)GlcNAc(b1-2)[GlcNAc(b1-3)Gal(b1-4)GlcNAc(b1-3)Gal(b1-4)GlcNAc(b1-6)]Man(a1-6)[GlcNAc(b1-3)Gal(b1-4)GlcNAc(b1-3)Gal(b1-4)GlcNAc(b1-2)Man(a1-3)]Man(b1-4)GlcNAc(b1-4)[Fuc(a1-6)]GlcNAc
# Procedure, shortened: as §1
# [3] = target: GlcNAc(b1-3)Gal(b1-4)GlcNAc(b1-3)Gal(b1-4)GlcNAc(b1-3)Gal(b1-4)GlcNAc(b1-2)Man(a1-3)[GlcNAc(b1-3)Gal(b1-4)GlcNAc(b1-3)Gal(b1-4)GlcNAc(b1-3)Gal(b1-4)GlcNAc(b1-2)Man(a1-6)]Man(b1-4)GlcNAc(b1-4)GlcNAc
# Procedure, shortened: as §1
# [4] = target: GlcNAc(b1-3)Gal(b1-4)GlcNAc(b1-3)Gal(b1-4)GlcNAc(b1-3)Gal(b1-4)GlcNAc(b1-2)Man(a1-3)[GlcNAc(b1-3)Gal(b1-4)GlcNAc(b1-3)Gal(b1-4)GlcNAc(b1-3)Gal(b1-4)GlcNAc(b1-2)Man(a1-6)]Man(b1-4)GlcNAc(b1-4)[Fuc(a1-6)]GlcNAc
# Procedure, shortened: as §1
# [5] = target: GlcNAc(b1-3)Gal(b1-4)GlcNAc(b1-3)Gal(b1-4)GlcNAc(b1-3)Gal(b1-4)GlcNAc(b1-2)[GlcNAc(b1-3)Gal(b1-4)GlcNAc(b1-3)Gal(b1-4)GlcNAc(b1-3)Gal(b1-4)GlcNAc(b1-6)]Man(a1-6)[GlcNAc(b1-3)Gal(b1-4)GlcNAc(b1-3)Gal(b1-4)GlcNAc(b1-3)Gal(b1-4)GlcNAc(b1-2)Man(a1-3)]Man(b1-4)GlcNAc(b1-4)[Fuc(a1-6)]GlcNAc
# Procedure, shortened: as §1
# [6] = target: GlcNAc(b1-3)Gal(b1-4)GlcNAc(b1-3)Gal(b1-4)GlcNAc(b1-3)Gal(b1-4)GlcNAc(b1-3)Gal(b1-4)GlcNAc(b1-2)Man(a1-3)[GlcNAc(b1-3)Gal(b1-4)GlcNAc(b1-3)Gal(b1-4)GlcNAc(b1-3)Gal(b1-4)GlcNAc(b1-3)Gal(b1-4)GlcNAc(b1-2)Man(a1-6)]Man(b1-4)GlcNAc(b1-4)GlcNAc
# Procedure, shortened: as §1
# [7] = target: GlcNAc(b1-3)Gal(b1-4)GlcNAc(b1-3)Gal(b1-4)GlcNAc(b1-3)Gal(b1-4)GlcNAc(b1-3)Gal(b1-4)GlcNAc(b1-2)Man(a1-3)[GlcNAc(b1-3)Gal(b1-4)GlcNAc(b1-3)Gal(b1-4)GlcNAc(b1-3)Gal(b1-4)GlcNAc(b1-3)Gal(b1-4)GlcNAc(b1-2)Man(a1-6)]Man(b1-4)GlcNAc(b1-4)[Fuc(a1-6)]GlcNAc
# Procedure, shortened: as §1
# [8] = target: GlcNAc(b1-3)Gal(b1-4)GlcNAc(b1-3)Gal(b1-4)GlcNAc(b1-3)Gal(b1-4)GlcNAc(b1-3)Gal(b1-4)GlcNAc(b1-2)[GlcNAc(b1-3)Gal(b1-4)GlcNAc(b1-3)Gal(b1-4)GlcNAc(b1-3)Gal(b1-4)GlcNAc(b1-3)Gal(b1-4)GlcNAc(b1-6)]Man(a1-6)[GlcNAc(b1-3)Gal(b1-4)GlcNAc(b1-3)Gal(b1-4)GlcNAc(b1-3)Gal(b1-4)GlcNAc(b1-3)Gal(b1-4)GlcNAc(b1-2)Man(a1-3)]Man(b1-4)GlcNAc(b1-4)[Fuc(a1-6)]GlcNAc
# Procedure, shortened: as §1
# [9] = target: GlcNAc(b1-3)Gal(b1-4)GlcNAc(b1-3)Gal(b1-4)GlcNAc(b1-3)GalNAc
# Procedure, shortened: as §1
# [10] = target: GlcNAc(b1-3)Gal(b1-4)GlcNAc(b1-3)GalNAc
# Procedure, shortened: as §1
# [11] = target: GlcNAc(b1-3)Gal(b1-4)GlcNAc(b1-3)[GlcNAc(b1-3)Gal(b1-4)GlcNAc(b1-3)]GalNAc
# Procedure, shortened: as §1
# [12] = target: GlcNAc(b1-3)Gal(b1-4)GlcNAc(b1-6)[Gal(b1-3)]GalNAc
# Procedure, shortened: as §1
# [13] = target: GlcNAc(b1-3)Gal(b1-4)GlcNAc(b1-6)[GlcNAc(b1-3)Gal(b1-3)]GalNAc
# Procedure, shortened: as §1
# [14] = target: GlcNAc(b1-3)Gal(b1-4)GlcNAc(b1-6)[GlcNAc(b1-3)]Gal(b1-4)GlcNAc
# Procedure, shortened: as §1
# GlcNAc(b1-3)GalNAc = target: GlcNAc(b1-3)GalNAc
# Procedure, shortened: as §1
# GlcNAc(b1-3)Man = target: GlcNAc(b1-3)Man
# Procedure, shortened: as §1
# [15] = target: GlcNAc(b1-3)[GlcNAc(b1-4)][GlcNAc(b1-6)]GlcNAc
# Procedure, shortened: as §1
# [16] = target: GlcNAc(b1-3)[GlcNAc(b1-6)]Gal(b1-4)GlcNAc
# Procedure, shortened: as §1
# [17] = target: GlcNAc(b1-3)[GlcNAc(b1-6)]GalNAc
# Procedure, shortened: as §1
# [18] = target: GlcNAc(b1-4)Gal(b1-4)GlcNAc
# Procedure, shortened: as §1
# GlcNAc(b1-4)GlcNAc = target: GlcNAc(b1-4)GlcNAc
# Procedure, shortened: as §1
# [19] = target: GlcNAc(b1-4)GlcNAc(b1-4)GlcNAc
# Procedure, shortened: as §1
# [20] = target: GlcNAc(b1-4)GlcNAc(b1-4)GlcNAc(b1-4)GlcNAc(b1-4)GlcNAc
# Procedure, shortened: as §1
# [21] = target: GlcNAc(b1-4)GlcNAc(b1-4)GlcNAc(b1-4)GlcNAc(b1-4)GlcNAc(b1-4)GlcNAc
# Procedure, shortened: as §1
# [22] = target: GlcNAc(b1-4)[GlcNAc(b1-6)]GalNAc
# Procedure, shortened: as §1
# [23] = target: GlcNAc(b1-6)Gal(b1-4)GlcNAc
# Procedure, shortened: as §1
# GlcNAc(b1-6)GalNAc = target: GlcNAc(b1-6)GalNAc
# Procedure, shortened: as §1
# [24] = target: GlcNAc6S(b1-3)Gal(b1-4)GlcNAc
# Procedure, shortened: as §1
# Kdn(a2-3)Gal(b1-3)GalNAc = target: Kdn(a2-3)Gal(b1-3)GalNAc
# Procedure, shortened: as §1
# Kdn(a2-3)Gal(b1-3)GlcNAc = target: Kdn(a2-3)Gal(b1-3)GlcNAc
# Procedure, shortened: as §1
# Kdn(a2-3)Gal(b1-4)Glc = target: Kdn(a2-3)Gal(b1-4)Glc
# Procedure, shortened: as §1
# Kdn(a2-3)Gal(b1-4)GlcNAc = target: Kdn(a2-3)Gal(b1-4)GlcNAc
# Procedure, shortened: as §1
# [25] = target: Kdn(a2-3)Gal(b1-4)[Fuc(a1-3)]GlcNAc
# Procedure, shortened: as §1
# Kdn(a2-6)Gal(b1-4)GlcNAc = target: Kdn(a2-6)Gal(b1-4)GlcNAc
# Procedure, shortened: as §1
# [26] = target: Man(a1-2)Man(a1-2)Man(a1-3)Man
# Procedure, shortened: as §1
# [27] = target: Man(a1-2)Man(a1-2)Man(a1-6)[Man(a1-3)]Man
# Procedure, shortened: as §1
# Man(a1-2)Man(a1-3)Man = target: Man(a1-2)Man(a1-3)Man
# Procedure, shortened: as §1
# [28] = target: Man(a1-2)Man(a1-3)[Man(a1-2)Man(a1-6)]Man
# Procedure, shortened: as §1
binder,measurement,setting,value
PX9961W-pdi-543-27-543 (Parabacteroides distasonis) (protein) EGNATTTSYFLNDQQAIDAIDGLYERFHQEGCYGRELFWEQGAACDIVWGRTRGYNSLATLAYTGDESPLRDVFSRMYSTMSRANWIIQELVKKEKGTTLTAVEKRSLGEAYFSRGWAHYLIAYRYGTDKQGVPFVRYEDFPDDYDNSIPPQQATVMDNYKLIIEDMDKAIAYLPIFESYDADNRGRAHQAAAVAFKAKTYAYWATWDATQWNNVIEMVNQLENNYNRDLAPTFAELFSSDLKDYWNAEYLWTIPSIGGALPGGTEFPGIILENKGWGKYNGWGQMKPSYDIYEEMAKDGKGNDRLVRSILEYNQEFPFFGETRKFWSTSDLEAGFMINKYMDAFKYSDPVGEGAVSANGDWPTVRVNFPIIRFAEMLLFRAEAYLMTGQADKATADINRIRLRSNLTPLTGTATMKDLYHERRCELAFEFTDHLFDLKRWNRSSNADIKTLADKELNAHPRIRRYEDRANPESAFTIIGYEDYTNKNAYQAHMMVFPYPSEEITKSNGQLKQNEGY,glycan array binding signal (z-score),[1],1.58
same,glycan array binding signal (z-score),[2],0.54
same,glycan array binding signal (z-score),[3],1.92
same,glycan array binding signal (z-score),[4],1.14
same,glycan array binding signal (z-score),[5],0.321
same,glycan array binding signal (z-score),[6],0.627
same,glycan array binding signal (z-score),[7],2.16
same,glycan array binding signal (z-score),[8],2.07
same,glycan array binding signal (z-score),[9],0.148
same,glycan array binding signal (z-score),[10],-0.785
same,glycan array binding signal (z-score),[11],1.26
same,glycan array binding signal (z-score),[12],0.168
same,glycan array binding signal (z-score),[13],0.07
same,glycan array binding signal (z-score),[14],0.324
same,glycan array binding signal (z-score),GlcNAc(b1-3)GalNAc,-0.745
same,glycan array binding signal (z-score),GlcNAc(b1-3)Man,0.469
same,glycan array binding signal (z-score),[15],0.162
same,glycan array binding signal (z-score),[16],-0.115
same,glycan array binding signal (z-score),[17],0.099
same,glycan array binding signal (z-score),[18],0.426
same,glycan array binding signal (z-score),GlcNAc(b1-4)GlcNAc,0
same,glycan array binding signal (z-score),[19],-0.547
same,glycan array binding signal (z-score),[20],1.13
same,glycan array binding signal (z-score),[21],-0.34
same,glycan array binding signal (z-score),[22],0.793
same,glycan array binding signal (z-score),[23],0.326
same,glycan array binding signal (z-score),GlcNAc(b1-6)GalNAc,0.306
same,glycan array binding signal (z-score),[24],0.873
same,glycan array binding signal (z-score),Kdn(a2-3)Gal(b1-3)GalNAc,0.669
same,glycan array binding signal (z-score),Kdn(a2-3)Gal(b1-3)GlcNAc,-0.01
same,glycan array binding signal (z-score),Kdn(a2-3)Gal(b1-4)Glc,-0.49
same,glycan array binding signal (z-score),Kdn(a2-3)Gal(b1-4)GlcNAc,-0.351
same,glycan array binding signal (z-score),[25],0.488
same,glycan array binding signal (z-score),Kdn(a2-6)Gal(b1-4)GlcNAc,-0.305
same,glycan array binding signal (z-score),[26],-0.734
same,glycan array binding signal (z-score),[27],-0.156
same,glycan array binding signal (z-score),Man(a1-2)Man(a1-3)Man,0.12
same,glycan array binding signal (z-score),[28],-0.438

# Laid out differently: entries from further up.
binder	measurement	setting	value
PX9961W-pdi-543-27-543 (Parabacteroides distasonis) (protein) EGNATTTSYFLNDQQAIDAIDGLYERFHQEGCYGRELFWEQGAACDIVWGRTRGYNSLATLAYTGDESPLRDVFSRMYSTMSRANWIIQELVKKEKGTTLTAVEKRSLGEAYFSRGWAHYLIAYRYGTDKQGVPFVRYEDFPDDYDNSIPPQQATVMDNYKLIIEDMDKAIAYLPIFESYDADNRGRAHQAAAVAFKAKTYAYWATWDATQWNNVIEMVNQLENNYNRDLAPTFAELFSSDLKDYWNAEYLWTIPSIGGALPGGTEFPGIILENKGWGKYNGWGQMKPSYDIYEEMAKDGKGNDRLVRSILEYNQEFPFFGETRKFWSTSDLEAGFMINKYMDAFKYSDPVGEGAVSANGDWPTVRVNFPIIRFAEMLLFRAEAYLMTGQADKATADINRIRLRSNLTPLTGTATMKDLYHERRCELAFEFTDHLFDLKRWNRSSNADIKTLADKELNAHPRIRRYEDRANPESAFTIIGYEDYTNKNAYQAHMMVFPYPSEEITKSNGQLKQNEGY	glycan array binding signal (z-score)	[21]	-0.34
same	glycan array binding signal (z-score)	[22]	0.793
same	glycan array binding signal (z-score)	[23]	0.326
